# Results from article PMC11816892.
# Chains of the proteins cited; added tags and fusions are not shown.
# UniProt P49736: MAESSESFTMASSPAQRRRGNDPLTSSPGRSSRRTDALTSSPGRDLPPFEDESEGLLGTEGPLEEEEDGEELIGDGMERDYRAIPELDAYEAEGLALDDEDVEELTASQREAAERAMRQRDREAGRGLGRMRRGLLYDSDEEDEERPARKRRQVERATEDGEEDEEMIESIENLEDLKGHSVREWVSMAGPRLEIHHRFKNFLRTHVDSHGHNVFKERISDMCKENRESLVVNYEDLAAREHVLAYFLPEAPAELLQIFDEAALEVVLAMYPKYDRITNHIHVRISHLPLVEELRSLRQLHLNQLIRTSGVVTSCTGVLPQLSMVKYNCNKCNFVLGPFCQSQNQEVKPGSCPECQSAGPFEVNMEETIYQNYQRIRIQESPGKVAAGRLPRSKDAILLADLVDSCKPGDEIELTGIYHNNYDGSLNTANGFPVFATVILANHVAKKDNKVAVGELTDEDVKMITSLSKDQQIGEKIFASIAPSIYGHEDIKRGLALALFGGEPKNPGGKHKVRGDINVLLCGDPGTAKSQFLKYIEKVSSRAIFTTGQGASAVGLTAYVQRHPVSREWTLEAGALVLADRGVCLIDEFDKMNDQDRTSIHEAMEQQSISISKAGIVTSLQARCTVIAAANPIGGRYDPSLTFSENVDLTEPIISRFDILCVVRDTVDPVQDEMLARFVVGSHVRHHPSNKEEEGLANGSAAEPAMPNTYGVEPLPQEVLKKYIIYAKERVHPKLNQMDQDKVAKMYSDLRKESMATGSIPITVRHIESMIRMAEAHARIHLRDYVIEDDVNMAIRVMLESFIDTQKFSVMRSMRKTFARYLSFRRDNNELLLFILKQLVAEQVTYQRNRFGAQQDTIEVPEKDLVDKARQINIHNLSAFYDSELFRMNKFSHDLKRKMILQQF
# UniProt Q9H4L4: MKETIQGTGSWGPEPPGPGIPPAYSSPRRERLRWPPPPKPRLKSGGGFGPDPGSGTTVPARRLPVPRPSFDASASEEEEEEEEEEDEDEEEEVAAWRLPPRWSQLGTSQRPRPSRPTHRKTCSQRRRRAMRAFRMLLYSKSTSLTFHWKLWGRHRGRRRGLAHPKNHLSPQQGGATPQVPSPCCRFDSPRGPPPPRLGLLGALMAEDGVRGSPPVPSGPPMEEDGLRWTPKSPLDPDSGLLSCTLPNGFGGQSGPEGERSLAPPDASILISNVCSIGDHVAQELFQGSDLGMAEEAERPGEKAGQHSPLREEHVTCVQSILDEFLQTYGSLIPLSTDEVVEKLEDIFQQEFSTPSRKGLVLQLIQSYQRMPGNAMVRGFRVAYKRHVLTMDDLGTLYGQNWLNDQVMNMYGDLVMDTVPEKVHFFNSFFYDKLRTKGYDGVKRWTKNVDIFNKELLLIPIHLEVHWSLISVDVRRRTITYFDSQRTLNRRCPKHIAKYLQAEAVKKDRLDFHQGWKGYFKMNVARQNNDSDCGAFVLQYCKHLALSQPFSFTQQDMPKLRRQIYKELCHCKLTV
# Results are given in words; binding and its absence hold for the method and conditions named. Binding seen in cells or lysates may run through a third protein. Some results given as binding are weak or reduced against the parent protein; the word gives no strength.
# B1: CD2BP2-C155 (protein, UniProt O95400 1-341)
# chain: MPKRKVTFQGVGDEEDEDEIIVPKKKLVDPVAGSGGPGSRFKGKHSLDSDEEEDDDDGGSSKYDILASEDVEGQEAATLPSEGGVRITPFNLQEEMEEGHFDADGNYFLNRDAQIRDSWLDNIDWVKIRERPPGQRQASDSEEEDSLGQTSMSAQALLEGLLELLLPRETVAGALRRLGARGGGKGRKGPGQPSSPQRLDRLSGLADQMVARGNLGVYQETRERLAMRLKGLGCQTLGPHNPTPPPSLDMFAEELAEEELETPTPTQRGEAESRGDGLVDVMWEYKWENTGDAELYGPFTSAQMQTWVSEGYFPDGVYCRKLDPPGGQFYNSKRIDFDLYT
# B2: VRK1-C155 (protein, UniProt Q99986 1-396)
# chain: MPRVKAAQAGRQSSAKRHLAEQFAVGEIITDMAKKEWKVGLPIGQGGFGCIYLADMNSSESVGSDAPCVVKVEPSDNGPLFTELKFYQRAAKPEQIQKWIRTRKLKYLGVPKYWGSGLHDKNGKSYRFMIMDRFGSDLQKIYEANAKRFSRKTVLQLSLRILDILEYIHEHEYVHGDIKASNLLLNYKNPDQVYLVDYGLAYRYCPEGVHKEYKEDPKRCHDGTIEFTSIDAHNGVAPSRRGDLEILGYCMIQWLTGHLPWEDNLKDPKYVRDSKIRYRENIASLMDKCFPEKNKPGEIAKYMETVKLLDYTEKPLYENLRDILLQGLKAIGSKDDGKLDLSVVENGGLKAKTITKKRKKEIEESKEPGVEDTEWSNTQTEEAIQTRSRTRKRVQK
# B3: GTSE1-C155 (protein, UniProt Q9NYZ3 1-739)
# chain: MEGGGGRDEPSACRAGDVNMDDPKKEDILLLADEKFDFDLSLSSSSANEDDEVFFGPFGHKERCIAASLELNNPVPEQPPLPTSESPFAWSPLAGEKFVEVYKEAHLLALHIESSSRNQAAQAAKPEDPRSQGVERFIQESKLKINLFEKEKEMKKSPTSLKRETYYLSDSPLLGPPVGEPRLLASSPALPSSGAQARLTRAPGPPHSAHALPRESCTAHAASQAATQRKPGTKLLLPRAASVRGRSIPGAAEKPKKEIPASPSRTKIPAEKESHRDVLPDKPAPGAVNVPAAGSHLGQGKRAIPVPNKLGLKKTLLKAPGSTSNLARKSSSGPVWSGASSACTSPAVGKAKSSEFASIPANSSRPLSNISKSGRMGPAMLRPALPAGPVGASSWQAKRVDVSELAAEQLTAPPSASPTQPQTPEGGGQWLNSSCAWSESSQLNKTRSIRRRDSCLNSKTKVMPTPTNQFKIPKFSIGDSPDSSTPKLSRAQRPQSCTSVGRVTVHSTPVRRSSGPAPQSLLSAWRVSALPTPASRRCSGLPPMTPKTMPRAVGSPLCVPARRRSSEPRKNSAMRTEPTRESNRKTDSRLVDVSPDRGSPPSRVPQALNFSPEESDSTFSKSTATEVAREEAKPGGDAAPSEALLVDIKLEPLAVTPDAASQPLIDLPLIDFCDTPEAHVAVGSESRPLIDLMTNTPDMNKNVAKPSPVVGQLIDLSSPLIQLSPEADKENVDSPLLKF
# Molecular target: MCM2-N154 (human (cDNA of HEK293T cells)) (UniProt P49736)
# Assay: split reporter; BiFC with split mScarlet3 (MCM2-N154 and target-C155) co-transfected into HEK293T cells; imaged 16 to 24 h after transfection, co-stained with an MCM2 antibody
row,binding,Molecule
1,no binding,SENP3-C155 (from UniProt Q9H4L4 1-574)
2,binds,B1
3,binds,B2
4,binds,B3
